Binding data for one molecule are collected here from article doi:10.1101/2020.05.21.107789.

Sequences of proteins named here, by UniProt entry; tags and fusion partners are left off.
UniProt Q15561: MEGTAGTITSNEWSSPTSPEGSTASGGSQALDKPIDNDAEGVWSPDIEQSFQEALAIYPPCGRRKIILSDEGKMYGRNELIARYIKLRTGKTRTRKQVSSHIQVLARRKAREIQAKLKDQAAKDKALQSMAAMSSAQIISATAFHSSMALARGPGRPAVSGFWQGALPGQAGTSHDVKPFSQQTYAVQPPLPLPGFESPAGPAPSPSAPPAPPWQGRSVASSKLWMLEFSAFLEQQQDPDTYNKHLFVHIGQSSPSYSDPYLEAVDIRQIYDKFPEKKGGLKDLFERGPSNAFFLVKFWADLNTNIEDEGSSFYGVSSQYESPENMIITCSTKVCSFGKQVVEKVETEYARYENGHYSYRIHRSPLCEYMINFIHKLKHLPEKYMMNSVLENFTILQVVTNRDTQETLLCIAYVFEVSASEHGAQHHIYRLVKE

Results are given in words; binding and its absence hold for the method and conditions named. Binding seen in cells or lysates may run through a third protein. Some results given as binding are weak or reduced against the parent protein; the word gives no strength. Tags and fused reporters may be left off the sequences shown.

The test addresses N-terminally V5-tagged wt^TEAD4 (full length) (human) (UniProt Q15561). In words: co-IP.

B1: (FLAG)3-wt^VGLL2 (full length) (protein, UniProt Q8N8G2-1 1-317)
chain: MSCLDVMYQVYGPPQPYFAAAYTPYHQKLAYYSKMQEAQECNASPSSSGSGSSSFSSQTPASIKEEEGSPEKERPPEAEYINSRCVLFTYFQGDISSVVDEHFSRALSQPSSYSPSCTSSKAPRSSGPWRDCSFPMSQRSFPASFWNSAYQAPVPPPLGSPLATAHSELPFAAADPYSPAALHGHLHQGATEPWHHAHPHHAHPHHPYALGGALGAQAAPYPRPAAVHEVYAPHFDPRYGPLLMPAASGRPARLATAPAPAPGSPPCELSGKGEPAGAAWAGPGGPFASPSGDVAQGLGLSVDSARRYSLCGASLLS
Take B1: the binding result is on record as “binds”.
